Data on 41 molecules can be found in PubChem BioAssay AID2685 (National Center for Advancing Translational Sciences (NCATS), 2010).

The test can be described thus: qHTS Assay for Lipid Storage Modulators in Drosophila S3 Cells.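 As to cell number change: cells counted by Cell Tracker Red CMTPX staining in the red channel.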 To be noted: BODIPY lipid droplet fluorescence, 18-24 h; for cell number change: measured here: cell count max response, cells fed with added oleic acid. The method in brief:
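Drosophila S3 cells loaded with oleic acid (400 uM, as added) and compounds at several concentrations; lipid droplets imaged by 488-nm laser-scanning cytometry, 500–530 nm intensity and object ratio to cell channel. Percent activity normalized to 20 uM Triacsin C.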
(qHTS replaces the single test concentration by a dilution series.)

[1] abbreviates: measured here: cell number channel AC50, cells fed with added oleic acid.
Where [2] appears, read: measured here: lipid fluorescence (Fed channel) AC50, cells fed with added oleic acid.

The other results are listed elsewhere or left out. These are further read-outs of the screen, such as a control signal, another cell line or another target. No call is given for them. Most of these compounds were active or inconclusive in the main read-out, so they are no random draw. The note in brackets gives the kind of curve behind each potency; many fits are weak.

`COc1ccc(OCC(=O)N(Cc2sccc2C)C2CCS(=O)(=O)C2)cc1` (configuration not stated): the cell number change was -25.1%. The same measure, in the same setting: the value for `Cc1cccc(C)c1OCc1nnc(SCC(=O)Nc2ccc(N3CCOCC3)cc2)o1` was 6.67%; that for `Cc1onc(-c2ccccc2)c1C(=O)N/N=C/c1c[nH]c2ccccc12` was 0.223%. Turning to `C=C1CCC[C@]2(C)C[C@H]3OC(=O)C(CNCCN(CC)CC)[C@H]3CC12` (some centres not stated), the cell number change was -36.9%. Besides, the AC50 under setting [1] is 20.6 µM [falling, single point]. Also, the AC50 under setting [2] is 8.2 µM [falling, partial curve].

With `CNC(=O)NC(=O)C(C)Oc1ccccc1F` (configuration not stated), the AC50 under setting [2] is 5.17 µM [rising, full curve, poor fit].

Turning to `CCSc1nnc(NC(=O)COc2ccccc2[N+](=O)[O-])s1`, the cell number change was -22%. Further, the AC50 under setting [2] is 32.6 µM [falling, single point]. With `CS(=O)(=O)N1CCc2cc(-c3csc(NC(=O)C(c4ccccc4)c4ccccc4)n3)ccc21`, the cell number change was determined as 56.6%. For the same molecule, under setting [1], the AC50 is 10.3 µM [rising, partial curve, poor fit]. Consider `CCCc1cc(-c2n[nH]c(C(=O)OCC)c2-c2cscn2)c(O)cc1O`, for which the cell number change was -18.5%. The AC50 under setting [2] is 29.1 µM [falling, single point]. For the molecule `Cc1cc(C)cc(NC(=O)c2ccc(N3C(=O)C4CCCCC4C3=O)cc2)c1` (configuration not stated), the half-maximal activity concentration (AC50) under setting [2] is 28.2 µM [falling, single point].

Turning to `COc1cccc2c1C(CO)N1C(C#N)C3CC(C(=O)O)C(C1C2)N3C` (configuration not stated), the cell number change was -25.9%. In addition, the AC50 under setting [2] was 18.4 µM [falling, partial curve]. Take `CC(=O)Nc1cccc(OCc2ccc(S(=O)(=O)Cc3ccccc3)cc2)c1`: the cell number change is 41.2%. Besides, the concentration at half-maximal activity (AC50) under setting [1] was 5.17 µM [rising, full curve, poor fit]. The half-maximal activity concentration (AC50) under setting [2] was 8.2 µM [rising, partial curve].

Take `COc1ccc(-c2noc(N3CCCC(C(=O)Nc4ccc(C(C)=O)cc4)C3)n2)cc1` (configuration not stated): the cell number change is -17.7%. Besides, the concentration at half-maximal activity (AC50) under setting [2] is 0.58 µM [rising, single point]. Consider `COc1cc(C(=O)N2CCN(c3cc(Cl)ccc3Cl)CC2)cc(OC)c1OC`, for which the cell number change was 4.26%. The half-maximal activity concentration (AC50) under setting [2] is 0.103 µM [rising, full curve, poor fit]. On to `COc1ccc(C(CCNCc2ccccc2)c2ccc(F)cc2)cc1` (configuration not stated), for which the cell number change is -46.1%. Further, under setting [1], the AC50 is 14.6 µM [falling, single point]. For the same molecule, the concentration at half-maximal activity (AC50) under setting [2] was 16.4 µM [falling, partial curve]. With `O=C(NCc1nc2ccccc2[nH]1)c1cccc(S(=O)(=O)N2CCCC2)c1`, the cell number change stood at 7.65%. Under setting [2], the half-maximal activity concentration (AC50) was 2.31 µM [rising, partial curve].

As to `CC(C)c1ccc(NC(=S)N2CCCC2)cc1`, the cell number change was -3.47%. The AC50 under setting [1] is 5.8 µM [rising, single point]. On to `CCOC(=O)c1c(-c2ccc(OC)cc2)csc1NC(=O)CSc1nnc(C)c(=O)[nH]1`, for which the cell number change was -5.14%. On to `O=C1CC(N(CCc2ccccc2)C(=S)Nc2ccccc2)C(=O)N1c1ccccc1` (configuration not stated), for which the cell number change was -5.1%. Besides, under setting [2], the AC50 is 29.1 µM [rising, partial curve].

Consider `CCOC(=O)c1sc2nc(CC(=O)OC)nc(NCC(=O)OC)c2c1C`, for which the cell number change was -69.3%. The half-maximal activity concentration (AC50) under setting [1] was 1.84 µM [falling, partial curve]. For `COc1ccc(OC)c(NC(=O)CN2C(=O)C3(OCCCO3)c3ccccc32)c1`, the cell number change was -7.44%. As for `CCCNc1ncnc2sc(C)c(C)c12`, the cell number change is 213%. Further, the AC50 under setting [1] is 14.6 µM [rising, partial curve]. In addition, the AC50 under setting [2] is 16.4 µM [rising, partial curve].

Consider `Cc1ccc2c(c1)N(CC(=O)N1CCCC1)C(=O)C(C)O2` (configuration not stated), for which the cell number change was found to be 21.1%. For the same molecule, the AC50 under setting [1] was 0.366 µM [rising, full curve, poor fit]. Regarding `CCCCCCCCCCCCN1C/C(=C\C(=O)OCC)c2ccccc2S1(=O)=O`, the cell number change is -12.6%. Also, the concentration at half-maximal activity (AC50) under setting [2] was 3.66 µM [falling, single point]. Turning to `NC(CSC12CC3CC(CC(C3)C1)C2)C(=O)O` (configuration not stated), the cell number change is 1.18%. In the case of `c1ccc(Cn2c(SCCN3CCOCC3)nnc2-c2cccnc2)cc1`, the cell number change came to 38.7%. For the same molecule, the AC50 under setting [1] is 32.6 µM [rising, single point].

As to `O=C(COC(=O)c1ccccc1O)NCCC1=CCCCC1`, the cell number change is -44.3%. Further, under setting [2], the AC50 was 18.4 µM [falling, single point]. With `COc1ccc(NC(=O)Cn2ncn3nc(-c4ccc(OC)cc4)cc3c2=O)cc1`, the cell number change is -1.18%.

On to `COc1cc(C(=O)N(Cc2cc3cc(C)ccc3[nH]c2=O)CC2CCCO2)cc(OC)c1OC` (configuration not stated), for which the cell number change turned out to be 6.45%. Moreover, under setting [2], the AC50 was 0.13 µM [rising, full curve, poor fit]. As for `O=c1[nH]c2ccc(S(=O)(=O)N3CCN(c4ccccc4F)CC3)cc2s1`, the cell number change came out at 73.7%. In the case of `Cn1c(=O)cc(SCC(=O)N2CCCC2)c2cc(Cl)ccc21`, the cell number change was 13%. The half-maximal activity concentration (AC50) under setting [2] was 0.461 µM [rising, full curve].

Consider `CC1=CS/C(=C(/C#N)C(=O)N2CCOCC2)N1c1ccccc1`, for which the cell number change was 25.1%. Under setting [1], the concentration at half-maximal activity (AC50) is 0.184 µM [rising, full curve, poor fit]. Turning to `CC(=O)Nc1ccc(/C=C2\CCc3ccccc3C2=O)cc1`, the cell number change was -53.9%. The AC50 under setting [1] was 29.1 µM [falling, single point]. With `CCOC(=O)c1ccc(N2C(=O)C(CC(=O)NC)N(CCc3ccc(OC)c(OC)c3)C2=S)cc1` (configuration not stated), the cell number change was 65.5%. Moreover, the concentration at half-maximal activity (AC50) under setting [1] is 1.84 µM [rising, full curve]. As to `CCOc1ccc(-c2ccc(SC)nn2)cc1`, the cell number change was -14.2%. Turning to `C#CCOCCOCCOCCNc1nc(N2CCN(C(=O)CCCCCCCCCCNC(=O)Cn3cc(C[C@@H](C)O)nn3)CC2)nc(N2CCN(C(=O)CCCCCCCCCCNC(=O)[C@@H](CCSC)n3cc(CCO)nn3)CC2)n1`, the cell number change was 1.25%. Regarding `ON=Cc1cccn1-c1ccccc1`, the cell number change amounted to 22.2%. Besides, under setting [2], the concentration at half-maximal activity (AC50) is 3.66 µM [rising, partial curve]. For `COc1ccccc1CC(NC(C)=O)C(=O)NC1CCN(C(=O)c2ccc(C)cc2)CC1` (configuration not stated), the cell number change was 4.76%. As to `Cc1ccc(N(C(=O)Cc2c[nH]c3ccccc23)C(C(=O)NC2CCCCC2)c2ccco2)cc1` (configuration not stated), the cell number change worked out at 8.95%. In addition, under setting [1], the AC50 was 3.66 µM [rising, single point].

As for `COc1cc(/C=C/C(=O)OCC(=O)Nc2nnc(-c3ccccc3)o2)cc(OC)c1OC`, the cell number change is -3.52%. The half-maximal activity concentration (AC50) under setting [2] is 29.1 µM [rising, single point]. Regarding `CCCCSc1nnc(CSc2nc3nc(C)cc(C)n3n2)o1`, the cell number change is -9.02%. Regarding `Nc1nc2ccccc2n1CCOc1ccc(Cl)cc1`, the cell number change is -15.5%. For the same molecule, the AC50 under setting [2] was 29.1 µM [falling, single point].

Broadly, the AC50 is the midpoint of the concentration-response curve, whichever way the signal moves. Low readings indicate activity at low concentration, high ones activity only at high concentration.
